Binding signal data for one sequence are collected here from article PMC5996148.

Some test systems named below: SPTB (human); SPTLC1 (human); SRR (human); SSBP3 (human); SSPN (human); SSU72 (human); ST3GAL3 (human); STAM (human); STAMBP (human); STARD3NL (human); STARD5 (human); STARD7 (human); STCH (human); STEAP3 (human); STEAP4 (human); STK10 (human); STK16 (human).
Common to all, as to experiment: protein microarray (ProtoArray v5.0), streptavidin-Alexa Fluor 647
Holding throughout (settings): 3'-biotin; 20 mM Tris (pH 7.5), 5 mM MgCl2, 100 mM KCl, 0.1% Tween-20, A/T-rich and random oligonucleotide blockers; temperature not stated; high values mean tight binding

Another experiment concerns the target T1, SS18L2 (UniProt Q9UHA2).
T1 sequence: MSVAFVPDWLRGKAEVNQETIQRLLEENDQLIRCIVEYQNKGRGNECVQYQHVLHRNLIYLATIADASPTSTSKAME

In the next experiment the target is T2, STAT5B (UniProt P51692).
T2 sequence: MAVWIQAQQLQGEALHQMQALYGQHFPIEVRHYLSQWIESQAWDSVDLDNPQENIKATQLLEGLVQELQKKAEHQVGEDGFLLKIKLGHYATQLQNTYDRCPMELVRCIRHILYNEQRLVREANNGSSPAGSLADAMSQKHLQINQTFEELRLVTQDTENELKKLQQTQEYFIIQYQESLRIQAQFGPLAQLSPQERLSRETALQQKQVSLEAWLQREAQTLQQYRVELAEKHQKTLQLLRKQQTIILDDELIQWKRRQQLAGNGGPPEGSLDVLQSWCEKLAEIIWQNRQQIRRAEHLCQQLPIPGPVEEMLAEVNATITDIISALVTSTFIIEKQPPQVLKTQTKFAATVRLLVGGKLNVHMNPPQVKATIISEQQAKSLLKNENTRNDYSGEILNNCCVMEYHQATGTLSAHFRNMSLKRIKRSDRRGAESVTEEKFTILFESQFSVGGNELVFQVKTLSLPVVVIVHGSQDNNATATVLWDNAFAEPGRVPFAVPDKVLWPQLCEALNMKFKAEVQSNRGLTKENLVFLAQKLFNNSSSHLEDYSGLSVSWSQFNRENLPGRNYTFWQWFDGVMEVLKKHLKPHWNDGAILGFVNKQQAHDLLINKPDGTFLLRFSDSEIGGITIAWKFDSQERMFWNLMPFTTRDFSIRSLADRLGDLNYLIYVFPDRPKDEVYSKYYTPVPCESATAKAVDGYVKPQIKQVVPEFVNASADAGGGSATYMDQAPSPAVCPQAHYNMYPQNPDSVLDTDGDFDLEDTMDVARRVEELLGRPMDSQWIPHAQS

Experiment [1] deals with STIP1 homology and U box-containing protein 1 (human).

Values joined by “and” are separate entries in the source; they are usually repeats but may differ in a detail not shown here. Equal values may be shown once. The list shows a part of the results. For some assays here: The exact form of the protein is not confirmed.

Turning to “GGGAGGCTGAGGCAGG [G4-1 biotinylated (PQS2)]”, the binding signal was -0.297 z-score with SPTB (human); -0.324 z-score in the experiment on SPTLC1 (human); -0.325 z-score with SRR (human); -0.347 z-score with SS18L2; -0.374 z-score and -0.31 z-score in the experiment with SSBP3 (human); -0.329 z-score with SSPN (human). In addition, the binding signal in the experiment on SSU72 (human) is -0.298 z-score; with ST3GAL3 (human), -0.328 z-score; in the experiment with STAM (human), -0.31 z-score; in the experiment with STAMBP (human), -0.33 z-score; with STARD3NL (human) it was -0.293 z-score; in the experiment on STARD5 (human), -0.341 z-score. Further, the binding signal with STARD7 (human) was -0.362 z-score; in the experiment with STAT5B, -0.309 z-score; with STCH (human) it was -0.354 z-score; in the experiment on STEAP3 (human), -0.312 z-score; in the experiment on STEAP4 (human), -0.327 z-score; in experiment [1], -0.324 z-score. Besides, the figures for the binding signal with STK10 (human) and with STK16 (human) were -0.33 z-score and -0.336 z-score, respectively.
